Laboratory results published in publication PMC12431657, “Discovery and mechanistic insights of dibenzoylmethane as a broad spectrum inhibitor of coronavirus” (PLOS Pathogens, 2025).
Where a name gives a salt, the structure may show the parent alone. Read-outs that look alike come from different tables or passages of the source. Screen size: about 3,300 compounds; about 95 (3%) showed an effect of 50% or more. This is one part of the list. Square brackets hold non-standard residues; d marks the D form. Peptide text beside a SMILES is read from it. * marks the point of attachment. Sta = CC(C)C[C@H](N)[C@@H](O)CC(=O)O; Isovaleryl = CC(C)CC(=O)*

Test system: HCoV-229E
Set-up: species or system Huh-7; HTS, protection from HCoV-229E induced cell death, luminescent cell viability (CellCounting-Lite 2.0), inhibition rate
Conditions: 24 h post infection, 1 h compound pre-incubation, 10 µM, inhibitor

| Structure (SMILES) | 229E Inhibition rate | 229E Inhibition rate (229E Inhibition rate, 24 h) |
| --- | --- | --- |
| CC1(C)[C@H](OC(=O)c2ccccc2)CC[C@]2(C)C3=C([C@@H](O)C[C@@H]12)[C@@]1(C)CC[C@@]2(C)CC[C@@](C)(COC(=O)c4ccccc4)C[C@H]2[C@]1(C)CC3 [3,29-Dibenzoyl rarounitriol] | 20.2% |  |
| O=C(O)CCCCCCCCCC(=O)O [Undecanedioic acid] | 15.1% |  |
| CCOC(=O)/C=C/c1ccc(OC)cc1 [(E)-Ethyl p-methoxycinnamate] | 17.3% |  |
| C[C@@H]1O[C@@H](Oc2c(-c3ccc(O)cc3)oc3cc(O[C@@H]4O[C@@H](C)[C@H](O)[C@@H](O)[C@H]4O[C@@H]4O[C@H](CO)[C@@H](O)[C@H](O)[C@H]4O)cc(O)c3c2=O)[C@H](O)[C@H](O)[C@H]1O [Grosvenorine] | 15.4% |  |
| COc1ccc2[nH]c(=O)oc2c1 [Coixol] | 0% |  |
| COc1cc2c(cc1OC)[C@@H]1Cc3ccc(OC)c(OC)c3CN1CC2 [Rotundine] |  | 14.2% |
| CC(=O)O[C@H]1C(=O)[C@@]2(C)[C@H]([C@H](OC(=O)c3ccccc3)[C@]3(O)C[C@H](O)C(C)=C1C3(C)C)[C@]1(OC(C)=O)CO[C@@H]1C[C@@H]2O [Baccatin III] | 20.5% |  |
| CC(=O)CCc1ccccc1 [Benzylacetone] | 14.7% |  |
| O=C(/C=C/c1ccc(O)cc1)c1c(O)cc(O)cc1O [Naringenin chalcone] | 38.1% |  |
| C=C[C@]1(C)C[C@@H](OC(=O)CO)[C@]2(C)[C@H](C)CC[C@]3(CCC(=O)[C@H]32)[C@@H](C)[C@@H]1O [Pleuromutilin] | 38.5% |  |
| COc1cc(-c2coc3c([C@@H]4O[C@H](CO)[C@@H](O)[C@H](O)[C@H]4O)c(O)ccc3c2=O)ccc1O [3'-Methoxypuerarin] | 34.9% |  |
| Cc1cc(O)cc(O)c1C(=O)O [Orsellinic acid] | 15% |  |
| CCC(O)CC(=O)O (stereo not drawn) [3-Hydroxyvaleric acid] | 9.6% |  |
| C=C(CCC=C(C)C)[C@H]1CC[C@]2(C)[C@@H]1[C@H](O)C[C@@H]1[C@@]3(C)CC[C@H](O[C@@H]4O[C@H](CO)[C@@H](O)[C@H](O)[C@H]4O[C@@H]4O[C@H](CO)[C@@H](O)[C@H](O)[C@H]4O)C(C)(C)[C@@H]3CC[C@]12C [Ginsenoside Rk1] | 9.9% |  |
| CC(=O)NCC(=O)O [N-Acetylglycine] | 10.2% |  |
| CC(C)=CC/C=C(\C)[C@H]1CC[C@]2(C)[C@@H]1[C@H](O)C[C@@H]1[C@@]3(C)C[C@@H](O)[C@H](O[C@@H]4O[C@H](CO)[C@@H](O)[C@H](O)[C@H]4O[C@@H]4O[C@H](CO)[C@@H](O)[C@H](O)[C@H]4O)C(C)(C)[C@@H]3CC[C@]12C [Damulin A] | 23.1% |  |
| Cc1cc(=O)c2c(O)cc(O)cc2o1 [Noreugenin] | 48.9% |  |
| C[C@H]1O[C@H](O[C@@H]2[C@@H](O)[C@H](OCCc3ccc(O)c(O)c3)O[C@H](CO[C@H]3OCC(O)(CO)[C@@H]3O)[C@H]2OC(=O)/C=C/c2ccc(O)c(O)c2)[C@@H](O)[C@@H](O)[C@@H]1O (stereo partly drawn) [Forsythoside B] | 14.6% |  |
| CCC(O)C(=O)O (stereo not drawn) [Sodium 2-hydroxybutanoate] | 9.6% |  |
| CCCCC/C=C\C/C=C\CCCCCCCC(=O)OCC(O)CO (stereo not drawn) [1-Linoleoyl Glycerol] | 49.8% |  |
| CCCCCCCC(=O)OC [Methyl octanoate] | 0% |  |

| Structure (SMILES) | 229E Inhibition rate | 229E Inhibition rate (229E Inhibition rate, 24 h) |
| --- | --- | --- |
| CC(C)[C@H](N)C(=O)NCCC(=O)O [H-Val-Ala-OH] | 25.7% |  |
| Cc1c(C)c2c(c(C)c1O)CC[C@@](C)(CCC[C@H](C)CCC[C@H](C)CCCC(C)C)O2 (racemic) [DL-alpha-Tocopherol] | 11.1% |  |
| COc1ccc2ccc(=O)oc2c1C[C@@H]1OC1(C)C [Meranzin] | 41.1% |  |
| CC[C@H](C)C(=O)O[C@H]1C[C@H](O)C=C2C=C[C@H](C)[C@H](CC[C@@H](O)C[C@@H](O)CC(=O)O)[C@H]21 [Pravastatin (sodium)] | 14.3% |  |
| CNc1ccccc1C(=O)OC [Methyl N-methylanthranilate] | 29.4% |  |
| COc1c2ccoc2c(O)c2oc(=O)ccc12 [8-Hydroxybergapten] | 7.9% |  |
| OCc1ccc(O)cc1 [4-Hydroxybenzyl alcohol] | 26.1% |  |
| COc1cc2c(c(OC)c1OC)-c1c(cc3c(c1O)OCO3)C[C@H](C)[C@@H](C)C2 [Gomisin M2] | 19.3% |  |
| OCc1cccc(O)c1 [KSD 2405] | 12.6% |  |
| CC(C)[C@H](NC(=O)[C@H](CC(=O)O)NC(=O)[C@H](CCCCN)NC(=O)[C@@H](N)CCCN=C(N)N)C(=O)N[C@@H](Cc1ccc(O)cc1)C(=O)O [Thymopentin (acetate)] (H-RKDVY-OH) |  | 11.4% |
| CC(=O)N[C@H]1[C@H]([C@H](O)[C@H](O)CO)OC(O)(C(=O)O)C[C@@H]1O (stereo partly drawn) [N-Acetylneuraminic acid] | 13.4% |  |
| Nc1ncnc2c1ncn2[C@@H]1O[C@H](CO)C[C@H]1O [Cordycepin] | 15.3% |  |
| CC[C@H](C)[C@@H]1NC(=O)[C@@H]2CCCN2C(=O)[C@@H]2CCCN2C(=O)[C@@H]2CCCN2C(=O)[C@H](CC(C)C)NC(=O)CNC(=O)CNC(=O)[C@H](Cc2ccccc2)NC1=O [Heterophyllin B] (cyclo(FGGLPPPI)) | 12.9% |  |
| CC(C)CC(=O)N[C@H](C(=O)N[C@H](C(=O)N[C@@H](CC(C)C)[C@@H](O)CC(=O)N[C@@H](C)C(=O)N[C@@H](CC(C)C)[C@@H](O)CC(=O)O)C(C)C)C(C)C [Pepstatin] (Isovaleryl-VV[Sta]A[Sta]-OH) |  | 8.2% |
| CCCCCCCCCCCCCCCC(=O)OC[C@H](CO)OC(=O)CCCCCCCCCCCCCCC [1,2-Dipalmitoyl-sn-glycerol] | 6% |  |
| N[C@@H](CCC(=O)NCC(=O)O)C(=O)O [γ-Glu-Gly] | 27.8% |  |
| CCCCCCCC/C=C\CCCCCCCC(=O)O [Sodium oleate] |  | 10% |
| CC[C@@]1(O)C(=O)OCc2c1cc1n(c2=O)Cc2cc3c(CN(C)C)c(O)ccc3nc2-1 [Topotecan (Hydrochloride)] | 8.7% |  |
| Oc1cc(O)cc(/C=C/c2ccc(O)c(O)c2)c1 [Piceatannol] | 34.2% |  |
| O=C(O)/C=C(\CC(=O)O)C(=O)O [trans-Aconitic acid] | 15.5% |  |
| COc1cc(/C=C/CO)ccc1O[C@@H]1O[C@H](CO)[C@@H](O)[C@H](O)[C@H]1O [Coniferin] | 8.4% |  |

| Structure (SMILES) | 229E Inhibition rate | 229E Inhibition rate (229E Inhibition rate, 24 h) |
| --- | --- | --- |
| C=CC(C)(O)CCC=C(C)C (stereo not drawn) [Linalool] | 20.5% |  |
| COc1cc2c(cc1OC)-c1cc3ccc(OC)c(OC)c3c[n+]1CC2 [Palmatine (chloride)] |  | 29% |
| NC[C@H]1O[C@H](O[C@H]2[C@H](O)[C@@H](O[C@H]3O[C@H](CO)[C@@H](O)[C@H](N)[C@H]3O)[C@H](N)C[C@@H]2N)[C@H](N)[C@@H](O)[C@@H]1O [Bekanamycin] | 9.2% |  |
| Cc1ccc(C(C)C)c(O)c1 [Thymol] | 13.1% |  |
| CC/C=C\C/C=C\C/C=C\CCCCCCCC(=O)O [α-Linolenic acid] | 15% |  |
| C[C@@H]1O[C@@H](O[C@H]2C(=O)c3c(O)cc(O)cc3O[C@@H]2c2ccc(O)c(O)c2)[C@H](O)[C@H](O)[C@H]1O [Astilbin] | 15.2% |  |
| O=c1cccc2n1C[C@@H]1CNC[C@H]2C1 [Cytisinicline] | 0% |  |
| C/C=C/SC[C@H](N)C(=O)O [S-1-Propenyl-L-cysteine] | 13% |  |
| COc1ccc2c(c1OC)CN1CCc3cc4c(cc3C1=C2)OCO4 [Dihydroberberine] | 30% |  |
| O=c1oc2ccccc2cc1O [3-Hydroxycoumarin] | 12.9% |  |
| Nc1[nH]c(=O)nc2c1ncn2[C@@H]1O[C@H](CO)[C@@H](O)[C@H]1O [Crotonoside] | 10.9% |  |
| C=CCc1ccc(OC)cc1 [Estragole] | 21.1% |  |
| CC(=O)c1ccc(C)cc1C [2',4'-Dimethylacetophenone] | 31.8% |  |
| O=c1c(O[C@@H]2O[C@H](CO[C@@H]3O[C@H](CO)[C@@H](O)[C@H](O)[C@H]3O)[C@@H](O)[C@H](O)[C@H]2O)c(-c2ccc(O)c(O)c2)oc2cc(O)cc(O)c12 [Quercetin 3-gentiobioside] | 6.9% |  |
| O=c1ccn([C@@H]2O[C@H](COP(=O)(O)O)[C@@H](O)[C@H]2O)c(=O)[nH]1 [Uridine 5'-monophosphate] |  | 18.2% |
| COc1ccc(CCc2cc(OC)c(OC)c(OC)c2)cc1O [Erianin] | 26% |  |
| CN1CCc2cc3c(cc2C(=O)Cc2cc4c(cc2C1)OCO4)OCO3 [Protopine] | 13.8% |  |
| C[C@@H]1O[C@@H](O[C@H]2[C@H](Oc3cc(O)c4c(c3)O[C@H](c3ccc(O)cc3)CC4=O)O[C@H](CO)[C@@H](O)[C@@H]2O)[C@H](O)[C@H](O)[C@H]1O [Naringin] | 10.8% |  |
| CCCCCCCCCCCCCCCCCCCC(=O)O [Arachidic acid] | 14.3% |  |
| COC(=O)[C@@]12OC[C@]34[C@H]([C@@H](O)[C@@H]1O)[C@@]1(C)CC(=O)C(O)=C(C)[C@@H]1C[C@H]3OC(=O)[C@H](OC(C)=O)[C@@H]24 [Bruceine B] | 14.7% |  |
| CC(C)C1=CC(=O)[C@@](C)([C@H]2[C@H](O)C[C@@]3(C)[C@@H]4CC=C5[C@@H](CC[C@@H](O[C@@H]6O[C@H](CO)[C@@H](O)[C@H](O)[C@H]6O[C@@H]6O[C@@H](C)[C@H](O)[C@@H](O)[C@H]6O)C5(C)C)[C@]4(C)C(=O)C[C@]23C)O1 [Picfeltarraenin IB] | 14% |  |

Single records, from the list above:
CC[C@H](C)C(=O)O[C@H]1C[C@H](O)C=C2C=C[C@H](C)[C@H](CC[C@@H](O)C[C@@H](O)CC(=O)O)[C@H]21 [Pravastatin (sodium)] is entered as 229E Inhibition rate: 14.3%
CC[C@H](C)[C@@H]1NC(=O)[C@@H]2CCCN2C(=O)[C@@H]2CCCN2C(=O)[C@@H]2CCCN2C(=O)[C@H](CC(C)C)NC(=O)CNC(=O)CNC(=O)[C@H](Cc2ccccc2)NC1=O [Heterophyllin B] (cyclo(FGGLPPPI)) is entered as 229E Inhibition rate: 12.9%
CC(=O)O[C@H]1C(=O)[C@@]2(C)[C@H]([C@H](OC(=O)c3ccccc3)[C@]3(O)C[C@H](O)C(C)=C1C3(C)C)[C@]1(OC(C)=O)CO[C@@H]1C[C@@H]2O [Baccatin III] is entered as 229E Inhibition rate: 20.5%
